The source of these data is patent publication US12303591B2, “Tumescent infiltration drug delivery of high subcutaneous drug concentrations with prolonged local and systemic effects and minimal local or systemic toxicity” (priority 2015, dated 2025).

The conditions of series [1]: tumescent lidocaine.
The conditions of series [2]: in vivo; cited from earlier work.

In the case of `CCN(CC)CC(=O)Nc1c(C)cccc1C` [Lidocaine], in series [1], the “time required for systemic absorption” value is not below 24 h. Also, the “clinically safe serum lidocaine concentrations” value in series [2] was not above 5 µg/mL.
